## Results from one PubChem assay

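Genome-wide siRNA knockdown in TC32 Ewing sarcoma cells, comparing luciferase light from an NR0B1-promoter reporter with a CMV-promoter reporter 48 hours after transfection. Each siRNA was applied at 20 nM. A z-score of the log NR0B1-over-CMV signal, less the median of siRNAs with the same seed; more negative means a stronger specific loss of the NR0B1 reporter.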

The strongest results of the screen are mostly left out here. Sequences are the guide (antisense) strand, without overhang.

| # | strand | target gene | seed-corrected z-score |
|---|---|---|---|
| 1 | `UGUUGUUGCCGCAAAGCUC` | FSTL3 | 0.249 |
| 2 | `ACAAAAUUCAGGGUGAACG` | CLCN7 | 0.07679 |
| 3 | `AUCCAUUCAUGUCUGCACC` | C18orf32 | -0.3457 |
| 4 | `AAGAUUACCAAGGACUUGG` | MCCC1 | 0.5381 |
| 5 | `UUCUCCGAGAAUAUCAUUC` | LRRC66 | 0.5616 |
| 6 | `UAGAGGUUGCAAUUUCUGC` | LHFPL2 | 0.6381 |
| 7 | `UUUGGAGAUUGCAUAAUCC` | LOC155060 | -0.6761 |
| 8 | `UAUAGUUGAACGGAAAGUG` | ELSPBP1 | 0.1207 |
| 9 | `AUCUGUAGGAACAAAUUUC` | METTL21C | -0.6358 |
| 10 | `UGUCUGAUAGGGAAGAAGC` | ARHGEF15 | -0.03684 |
| 11 | `UUUGCUGUUCUUGUACUUC` | PHF2 | 1.691 |
| 12 | `UUGGUUAGAAGAUCCAUUC` | SPATS2L | -0.5544 |
| 13 | `UGCUUGUAGACAAGAGUCG` | AIRE | -1.858 |
| 14 | `UUAUGGGACAGCAAUUUCU` | RNF185 | -0.3711 |
| 15 | `UCAUAGAGGACGGAGAGGG` | IRF2BP2 | -0.2385 |
| 16 | `UCGGUGGUGAUUAAGUAGC` | NAGK | -0.04579 |
| 17 | `AUCACUAAAAUCUAAGGCC` | NAF1 | 1.057 |
| 18 | `AAGAGGUUCAUUUCGUUGC` | PCDH10 | -0.4314 |
| 19 | `UAUGAUGCAACUUAAGAUG` | KCNJ16 | -0.3988 |
| 20 | `UUUAGCUCUAGGUGAGUCU` | AIF1 | 0.1858 |
| 21 | `AUAAAGUCUAUGGAAGUGU` | FAM150B | 0.9874 |
| 22 | `AUACGGUACAAAGCGAGGC` | CEACAM20 | 0.3362 |
| 23 | `UGCGUUUUAGCUAUGACAC` | RLF | 0.3701 |
| 24 | `AACGUGUACACCACCAUGC` | FLVCR2 | -0.06853 |
| 25 | `AAAGAUGUAAGAGAUUAUG` | OR4F6 | -0.4043 |
| 26 | `AUCGGAAAGACGAUGAAGC` | SH3GL1 | 0.3513 |
| 27 | `UUUUGUAUAAUUUCCAGUU` | NDUFA4 | 0.464 |
| 28 | `AAAGAAUGUGGUGUAGUCC` | OR9A2 | 0.3758 |
| 29 | `UACAGCUUGCCUGUAUUCG` | RASL11A | 0.2881 |
| 30 | `UAUUAGUCUGGUUUCCUAC` | ICE2 | 1.214 |
| 31 | `UGUGAUAAUCCGGUAGACC` | BRD2 | 0.3623 |
| 32 | `AAAUGAUCUAGUGCAUCUC` | PXT1 | -0.02905 |
| 33 | `UUAGGUGCAGGUGGUUUAC` | TIAL1 | -1.775 |
| 34 | `AUUGUUAAUUGGGAACUCC` | MRPS31 | 0.3807 |
| 35 | `UACAGGGAGGUGGAAUCCG` | LOC102724699 | 0.4702 |
| 36 | `UUACUCACAAAGGAUUUUG` | GPR174 | 0.1379 |
| 37 | `UUGGUCAGAAAGUCAGCUC` | RAB7A | 0.03554 |
| 38 | `ACUGUGAAUGAUUAGGUCG` | CYP26C1 | 0.4327 |
| 39 | `UUCGGUGAUUCCUUAGGCC` | ZNF782 | -0.08888 |
| 40 | `UUUACUACAUCUGUAAGGC` | ZNF528 | -0.3824 |
| 41 | `UUAGUUGCUUAAGAGUUGC` | STIL | -1.34 |
| 42 | `UGUUCGUUUGGAAUUGCCC` | PHLDB2 | 0.971 |
| 43 | `UUUCUGCUGUUGGUGAGCG` | PRR15 | -1.481 |
| 44 | `UAUGCAUUGACCGAACUCU` | MIR3976HG | 0.5415 |
| 45 | `UCUUUAUCUAGGCAAAAUG` | PGRMC2 | -0.5321 |
| 46 | `UGUCUUUCAAUUAUGUCCA` | BCAR3 | -0.8573 |
| 47 | `AUUAAUACUGGGAUGAUGA` | DSPA2D | -1.77 |
| 48 | `UGUGGUGUAGAGGGAGUGC` | SIPA1 | -0.5753 |
| 49 | `AAAUGUAACCUUUGGAGGC` | UBE2E1 | 0.2918 |

The first 3 entries again:

strand	target gene	seed-corrected z-score
UGUUGUUGCCGCAAAGCUC	FSTL3	0.249
ACAAAAUUCAGGGUGAACG	CLCN7	0.07679
AUCCAUUCAUGUCUGCACC	C18orf32	-0.3457

Data taken from PubChem BioAssay AID1159506, deposited by NCATS (2015).